# Results taken from PubChem BioAssay AID2685 (National Center for Advancing Translational Sciences (NCATS), 2010).
# The list shows a part of the results. Further columns of the screen follow, without active or inactive calls. Compounds called inactive in the main read-out are mostly missing here. Potencies come from curve fits of mixed quality, noted in brackets.
# Assay: qHTS Assay for Lipid Storage Modulators in Drosophila S3 Cells;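 as to cell number change: cells counted by Cell Tracker Red CMTPX staining in the red channel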
# Settings: BODIPY lipid droplet fluorescence, 18-24 h; for cell number change: measured here: cell count max response, cells fed with added oleic acid
# Procedure, shortened: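 Drosophila S3 cells got compounds at several concentrations plus oleic acid (400 uM solution). Laser-scanning cytometry with 488 nm excitation read lipid droplets at 500-530 nm and cells at 575-640 nm. Percent activity was relative to 20 uM Triacsin C.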
# [1] = measured here: cell number channel AC50, cells fed with added oleic acid
# [2] = measured here: lipid fluorescence (Fed channel) AC50, cells fed with added oleic acid
compound,measurement,setting,value
Cc1cc(OCC(=O)OCC(=O)N2CC(C)CC(C)C2)ccc1Cl (centres undefined),cell number change,,19.7%
same,AC50,[1],"4.11 µM [falling, single point]"
same,AC50,[2],"4.11 µM [falling, single point]"
Cc1cc(Cn2nnc3ccccc32)c(O)c(C(C)(C)C)c1,cell number change,,-39.2%
same,AC50,[2],"29.1 µM [falling, single point]"
CC(=O)N1N=C(c2ccco2)CC1c1ccco1 (centres undefined),cell number change,,10.9%
O=C(Nc1ccnn1C1CCN(C(=O)c2cc(Cl)ccc2F)CC1)C1CCOC1 (centres undefined),cell number change,,-3.62%
same,AC50,[2],"6.51 µM [falling, partial curve, poor fit]"
COC(=O)c1sccc1NC(=O)Nc1ccccc1OC,cell number change,,11%
CCC1=Nc2cc(C(=O)NCc3ccco3)ccc2Sc2ccccc21,AC50,[2],"29.1 µM [falling, single point]"
COc1ccc(C)cc1NC(=O)CCCNC(=O)Cn1cnc2sc(C)c(C)c2c1=O,cell number change,,24.3%
COc1ccc(/C=C2\SC(=S)N(CC(=O)NCCO)C2=O)cc1,cell number change,,-70.5%
same,AC50,[1],"32.6 µM [falling, partial curve, poor fit]"
same,AC50,[2],"29.1 µM [falling, partial curve, poor fit]"
CCN(C(=O)COC(=O)c1c(C)nsc1NC)c1ccccc1,cell number change,,35.4%
same,AC50,[1],"7.31 µM [rising, partial curve, poor fit]"
same,AC50,[2],"6.51 µM [falling, partial curve, poor fit]"
O=C(NC1CCN(C(=O)N2CCOCC2)CC1)c1ccccc1,cell number change,,-109%
same,AC50,[1],"16.4 µM [falling, partial curve]"
same,AC50,[2],"29.1 µM [falling, partial curve]"
Cc1ccc(CCNCc2c(C(=O)O)c(C)n(-c3ccccc3)c2C)cc1,cell number change,,-19.4%
COc1ccc(C2C(C(=O)c3ccco3)=C(O)C(=O)N2CCN2CCOCC2)cc1 (centres undefined),cell number change,,13.2%
COc1ccc(OC)c2sc(N(CCN(C)C)C(=O)/C=C/c3cccs3)nc12,AC50,[1],"0.164 µM [rising, full curve, poor fit]"
same,AC50,[2],"29.1 µM [falling, single point]"
O=C(Cc1cn2ccsc2n1)Nc1ccccn1,cell number change,,15.7%
O=C(OCCCN1CCCC1)C1(c2ccccc2)CCCC1,cell number change,,-49%
same,AC50,[1],"4.11 µM [falling, full curve]"
same,AC50,[2],"16.4 µM [falling, partial curve]"
O=C(Nc1ccc(N2CCN(C(=O)c3ccco3)CC2)cc1)c1ccc(F)cc1,cell number change,,-15.6%
same,AC50,[2],"0.184 µM [rising, full curve, poor fit]"
Cc1ccc(C(=O)NNC(=S)NC(=O)COc2ccccc2)cc1,cell number change,,-0.387%
same,AC50,[2],"2.31 µM [falling, partial curve]"
O=C(NCCCNC(=O)c1cnccn1)c1ccc(Cl)c(Cl)c1,cell number change,,-6.58%
Cc1nn(Cc2ccc(F)cc2Cl)c(C)c1[N+](=O)[O-],cell number change,,17.2%
CN(CC(=O)Nc1ccc(Cl)c(C(F)(F)F)c1)C(=O)Cc1cccs1,cell number change,,37.9%
same,AC50,[1],"23.1 µM [rising, partial curve, poor fit]"
Cc1sc2nc(COC(=O)C(NC(=O)c3ccc(Cl)cc3Cl)C(C)C)[nH]c(=O)c2c1C (centres undefined),cell number change,,25.3%
same,AC50,[2],"16.4 µM [rising, single point]"
Cc1ccnc(NC(=O)CCC(=O)N(CC(=O)NCc2ccc(F)cc2)c2cccc(F)c2)c1,cell number change,,3.91%
Cc1ccc(Cl)c2sc(NC(=O)C3=COCCO3)nc12,cell number change,,-18.1%
Cc1cc(C(=O)N/N=C/c2ccc(-c3cccc(Cl)c3)o2)n[nH]1,cell number change,,-27.6%
Cc1ccc(S(=O)(=O)Nc2ccccc2F)cc1C(=O)N1CCN(c2ccccc2O)CC1,cell number change,,-24.2%
same,AC50,[2],"16.4 µM [falling, partial curve]"
COC(=O)c1cc(S(=O)(=O)NCCCN2CCCC2=O)cn1C,cell number change,,23%
same,AC50,[2],"29.1 µM [rising, single point]"
Cn1c(SCC2CCCO2)nnc1-c1ccncc1 (centres undefined),cell number change,,7.82%
CCOC(=O)C1C(=O)NC(N2CCN(c3ccccc3)CC2)=NC1c1ccccc1 (centres undefined),cell number change,,12.8%
same,AC50,[1],"0.517 µM [falling, full curve, poor fit]"
same,AC50,[2],"16.4 µM [falling, partial curve]"
COc1ccc(/C=C2\SC(=S)N(CCCC(=O)Nc3ccccc3C(=O)O)C2=O)cc1OC,cell number change,,-0.54%
Cc1nc(OCC(=O)c2ccc(Cl)cc2)c(C#N)c2c1COC(C)(C)C2,AC50,[1],"2.06 µM [rising, partial curve]"
same,AC50,[2],"9.2 µM [rising, partial curve, poor fit]"
Cc1cc2c3c(c1)C(C)(c1ccccc1)CC(C)(C)N3C(=O)C21C(C#N)=C(N)OC2=C1C(=O)CC(C)(C)C2 (centres undefined),cell number change,,-70.5%
same,AC50,[1],"29.1 µM [falling, single point]"
same,AC50,[2],"25.9 µM [falling, single point]"
Cc1cc(NC(=O)CSCC(=O)N(C)Cc2ccc(Cl)cc2Cl)no1,cell number change,,23.6%
same,AC50,[2],"8.2 µM [rising, partial curve, poor fit]"
CC1C/C(=N/Nc2ccc([N+](=O)[O-])cc2[N+](=O)[O-])CC(C)(C)C1 (centres undefined),cell number change,,-33.3%
same,AC50,[1],"23.1 µM [falling, single point]"
same,AC50,[2],"20.6 µM [falling, single point]"
N#Cc1ccc(CSc2nnc3ccccn23)cc1,cell number change,,-35.7%
same,AC50,[1],"32.6 µM [falling, single point]"
O=C(CCn1c(=O)c2cccn2c2ccc(F)cc21)NCCc1ccccc1,cell number change,,-14.2%
same,AC50,[2],"0.146 µM [falling, full curve, poor fit]"
NC(=O)CN1CCOCCOCCOCCOCCOCC1,cell number change,,-38.9%
same,AC50,[1],"18.4 µM [falling, single point]"
Cc1ccc(S(=O)(=O)n2nc(-n3c(C)ccc3C)c3c(F)cccc32)c2ccccc12,AC50,[1],"0.517 µM [rising, partial curve]"
Cn1nc([N+](=O)[O-])nc1Sc1nnc(-c2ccccc2)o1,cell number change,,-40.3%
same,AC50,[2],"23.1 µM [falling, single point]"
Cc1ccc(N2C(=O)N(CC(=O)Nc3ccccc3C)C(=O)C2C)cc1 (centres undefined),cell number change,,-24.6%
CCOC(=O)C1=C(CNCc2ccc(C)cc2)NC(=O)NC1c1ccc(OC)cc1 (centres undefined),cell number change,,-6.28%
Cc1ccc(S(=O)(=O)N2CCN(C(=O)c3ccccc3)C2C(C)C)cc1 (centres undefined),AC50,[1],"0.259 µM [falling, full curve, poor fit]"
COC(=O)C(=C/C=C/c1ccco1)C(=O)OC,AC50,[1],"0.103 µM [falling, partial curve, poor fit]"
Cc1nn(-c2ccccc2)c2sc(C(=O)OCc3nnc(-c4ccccc4)o3)cc12,cell number change,,2.21%
same,AC50,[1],"1.46 µM [rising, full curve]"
same,AC50,[2],"1.3 µM [rising, partial curve]"
Cc1ccc(Cl)c2c1NC(=O)C2(O)CC(=O)c1ccc(F)cc1 (centres undefined),cell number change,,6.19%
O=C(Nc1ncc(C(F)(F)F)cc1Cl)c1ccc(S(=O)(=O)N2CCOCC2)cc1,cell number change,,4.47%
Cc1ccc(C(=O)Nc2ccc(NC(=O)c3cccs3)cc2)c(C)c1,cell number change,,297%
same,AC50,[1],"29.1 µM [rising, partial curve]"
same,AC50,[2],"29.1 µM [falling, single point]"
CCN(C(=O)COC(=O)c1ccc2[nH]c3c(c2c1)CCCC3)C1CCS(=O)(=O)C1 (centres undefined),cell number change,,-26.8%
same,AC50,[2],"29.1 µM [falling, single point]"
O=C(CCCn1ncn2c(cc3occc32)c1=O)N1CCc2ccccc2C1,cell number change,,-34.7%
same,AC50,[1],"13 µM [falling, single point]"
same,AC50,[2],"20.6 µM [falling, single point]"
CCC(C)/C(C)=N/NC(=O)c1ccc(CSc2nc3ccccc3s2)cc1 (centres undefined),cell number change,,34.4%
same,AC50,[1],"16.4 µM [rising, single point]"
same,AC50,[2],"29.1 µM [rising, partial curve]"
CC(=O)/C(=N/Nc1ccccc1Cl)Sc1nnc(C(O)c2ccccc2)n1-c1ccccc1 (centres undefined),cell number change,,1.18%
same,AC50,[2],"18.4 µM [rising, partial curve]"
CCCC(c1nnnn1C(C)(C)C)N1CCN(Cc2ccccc2)CC1 (centres undefined),cell number change,,21%
same,AC50,[2],"5.8 µM [rising, partial curve, poor fit]"
O=C(c1ccc([N+](=O)[O-])cc1[N+](=O)[O-])N1CCc2ccccc21,cell number change,,-11.8%
CC(C)CN(C(=O)c1cccc([N+](=O)[O-])c1)c1c(N)n(CC(C)C)c(=O)[nH]c1=O,cell number change,,34.2%
same,AC50,[1],"29.1 µM [rising, single point]"
C[C@H](NC(=O)NCCc1ccccc1)C(=O)O,cell number change,,-33.2%
same,AC50,[1],"32.6 µM [falling, partial curve, poor fit]"
same,AC50,[2],"0.92 µM [rising, full curve, poor fit]"
CC(OC(=O)/C(C#N)=C/c1ccc(N(C)C)cc1)C(=O)NCc1ccco1 (centres undefined),cell number change,,46.9%
same,AC50,[1],"8.2 µM [rising, partial curve]"
CCN(Cc1nc2ccccc2c(=O)[nH]1)C(=O)COc1ccccc1Cc1ccccc1,cell number change,,-35.3%
same,AC50,[1],"16.4 µM [falling, single point]"
same,AC50,[2],"16.4 µM [falling, single point]"
CCn1ncc2c(OCc3ccc(C#N)cc3)cc(C)nc21,cell number change,,11.9%
same,AC50,[2],"29.1 µM [rising, single point]"
COc1ccc(C(CNC(=O)c2cccc(S(=O)(=O)N3CCCC3)c2)N2CCCC2)cc1 (centres undefined),cell number change,,25.9%
same,AC50,[2],"2.91 µM [rising, full curve, poor fit]"
CC(C)CN1C(=O)c2ccc(C(=O)NCc3ccc4c(c3)OCO4)cc2C1=O,cell number change,,10%
same,AC50,[1],"1.46 µM [rising, partial curve, poor fit]"
same,AC50,[2],"0.0146 µM [rising, single point]"
CN1CCc2ccccc2C1Cc1ccccc1NC(=O)c1sc2ccccc2c1Cl (centres undefined),cell number change,,104%
same,AC50,[1],"29.1 µM [rising, single point]"
same,AC50,[2],"29.1 µM [rising, partial curve]"

# Rewritten tab-delimited: part of the list above.
compound	measurement	setting	value
Cc1cc(OCC(=O)OCC(=O)N2CC(C)CC(C)C2)ccc1Cl (centres undefined)	cell number change		19.7%
O=C(Nc1ccnn1C1CCN(C(=O)c2cc(Cl)ccc2F)CC1)C1CCOC1 (centres undefined)	cell number change		-3.62%
COc1ccc(/C=C2\SC(=S)N(CC(=O)NCCO)C2=O)cc1	AC50	[2]	29.1 µM [falling, partial curve, poor fit]
CCN(C(=O)COC(=O)c1c(C)nsc1NC)c1ccccc1	AC50	[2]	6.51 µM [falling, partial curve, poor fit]
O=C(NC1CCN(C(=O)N2CCOCC2)CC1)c1ccccc1	AC50	[1]	16.4 µM [falling, partial curve]
Cc1ccc(CCNCc2c(C(=O)O)c(C)n(-c3ccccc3)c2C)cc1	cell number change		-19.4%
O=C(OCCCN1CCCC1)C1(c2ccccc2)CCCC1	cell number change		-49%
CN(CC(=O)Nc1ccc(Cl)c(C(F)(F)F)c1)C(=O)Cc1cccs1	cell number change		37.9%
Cc1ccc(S(=O)(=O)Nc2ccccc2F)cc1C(=O)N1CCN(c2ccccc2O)CC1	cell number change		-24.2%
same	AC50	[2]	16.4 µM [falling, partial curve]
Cn1c(SCC2CCCO2)nnc1-c1ccncc1 (centres undefined)	cell number change		7.82%
Cc1cc(NC(=O)CSCC(=O)N(C)Cc2ccc(Cl)cc2Cl)no1	AC50	[2]	8.2 µM [rising, partial curve, poor fit]
CC1C/C(=N/Nc2ccc([N+](=O)[O-])cc2[N+](=O)[O-])CC(C)(C)C1 (centres undefined)	AC50	[1]	23.1 µM [falling, single point]
same	AC50	[2]	20.6 µM [falling, single point]
O=C(CCn1c(=O)c2cccn2c2ccc(F)cc21)NCCc1ccccc1	AC50	[2]	0.146 µM [falling, full curve, poor fit]
NC(=O)CN1CCOCCOCCOCCOCCOCC1	cell number change		-38.9%
Cc1ccc(S(=O)(=O)n2nc(-n3c(C)ccc3C)c3c(F)cccc32)c2ccccc12	AC50	[1]	0.517 µM [rising, partial curve]
CCOC(=O)C1=C(CNCc2ccc(C)cc2)NC(=O)NC1c1ccc(OC)cc1 (centres undefined)	cell number change		-6.28%
Cc1nn(-c2ccccc2)c2sc(C(=O)OCc3nnc(-c4ccccc4)o3)cc12	AC50	[1]	1.46 µM [rising, full curve]
same	AC50	[2]	1.3 µM [rising, partial curve]
O=C(CCCn1ncn2c(cc3occc32)c1=O)N1CCc2ccccc2C1	cell number change		-34.7%
same	AC50	[1]	13 µM [falling, single point]
CC(C)CN(C(=O)c1cccc([N+](=O)[O-])c1)c1c(N)n(CC(C)C)c(=O)[nH]c1=O	cell number change		34.2%
C[C@H](NC(=O)NCCc1ccccc1)C(=O)O	AC50	[2]	0.92 µM [rising, full curve, poor fit]
CC(OC(=O)/C(C#N)=C/c1ccc(N(C)C)cc1)C(=O)NCc1ccco1 (centres undefined)	cell number change		46.9%
same	AC50	[1]	8.2 µM [rising, partial curve]
CCn1ncc2c(OCc3ccc(C#N)cc3)cc(C)nc21	cell number change		11.9%
CC(C)CN1C(=O)c2ccc(C(=O)NCc3ccc4c(c3)OCO4)cc2C1=O	cell number change		10%
CN1CCc2ccccc2C1Cc1ccccc1NC(=O)c1sc2ccccc2c1Cl (centres undefined)	AC50	[1]	29.1 µM [rising, single point]
